Measured values taken from PubChem BioAssay AID493014 (National Center for Advancing Translational Sciences (NCATS), 2011).
The list shows a part of the results. The main result of the screen is listed elsewhere. These columns were measured beside it and carry no call. The list favours compounds with an active or inconclusive main result. The note in brackets gives the kind of curve behind each potency; many fits are weak.

Experiment: qHTS Assay to Find Inhibitors of Chronic Active B-Cell Receptor Signaling
Details: ABC-DLBCL IkBa-CBG/CBR reporter, luminescence ratio (green luciferase fused to IkBa over red control in TMD8 lymphoma cells), 4 h
Procedure, shortened: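 TMD8 ABC-DLBCL cells carrying doxycycline-inducible green luciferase fused to IkappaBalpha plus unfused red luciferase were exposed to compounds (up to 46 uM) for 4 hrs at 37C. Activity came from the overlap-corrected green/red luminescence ratio.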

[1] = measured here: CBR red luminescence, cell number
[2] = measured here: IkBa-CBG green luminescence

| Compound | AC50 [1] | AC50 [2] |
| --- | --- | --- |
| Cc1oc2c(CN3CCOCC3)c(O)ccc2c(=O)c1-c1ccccc1 | 2.82 µM [falling, partial curve] | – |
| COC(=O)CNC(c1ccccc1)c1cc(Br)ccc1NC(=O)CCN1CCOCC1 (stereo not given) | 23.1 µM [falling, single point] | – |
| C/C(Cc1ccccc1)=N\NC(=O)c1cccnc1 | 25.9 µM [falling, single point] | – |
| FC(F)(F)c1cc(C(F)(F)F)c2ccc(Oc3ccccc3)nc2n1 | 3.98 µM [rising, full curve, poor fit] | – |
| CC[C@]12c3[nH]c4cc(CCC(=O)N(C)C)ccc4c3CCN1C(=O)[C@@H](CC(=O)NC(C)(C)C)C[C@@H]2C(=O)N1CCN(C(=O)c2ccco2)CC1 | 20.6 µM [rising, single point] | 20.6 µM [falling, partial curve] |
| O=C1C(Cl)=C(NCCN2CCCCC2)C(=O)c2ccccc21 | 6.31 µM [falling, partial curve] | 8.91 µM [rising, partial curve, poor fit] |
| O=C(O)c1cccc(NC(=S)NC(=O)C(c2ccccc2)c2ccccc2)c1 | 5.01 µM [rising, full curve, poor fit] | 11.2 µM [falling, partial curve, poor fit] |
| CCOC(=O)c1sc(NC(=O)CS(=O)(=O)c2ccc(C)cc2)nc1C | 17.8 µM [falling, single point] | – |
| COc1ccccc1NC(=O)Nc1nc(CC(=O)N2CCN(c3ccccc3)CC2)cs1 | 13 µM [falling, single point] | – |
| N#C/C(=C\N1CCN(Cc2ccc3c(c2)OCO3)CC1)c1nc2ccccc2s1 | 10 µM [falling, partial curve, poor fit] | – |
| O=C1/C(=C/c2cccnc2)SC(=S)N1C1CCS(=O)(=O)C1 (stereo not given) | 6.51 µM [falling, full curve, poor fit] | – |
| CCOc1ccc(Br)cc1S(=O)(=O)N1CCSC1 | 31.6 µM [rising, single point] | – |
| Cc1[nH][nH]c(=O)c1N=Nc1ccccc1C#N | 2.24 µM [falling, full curve] | – |
| O=C(CN1CCCCCC1)Nc1ccccc1Cl | 14.1 µM [falling, partial curve] | – |
| CCN(CC)CCNc1nc(SC)nc2sc3c(c12)CCN(C)C3 | 10 µM [falling, partial curve] | – |
| O=C(N/N=C/c1ccccn1)c1cc(-c2ccccc2)nc2ccccc12 | 12.6 µM [rising, partial curve] | 11.2 µM [falling, partial curve, poor fit] |
| Fc1ccc(Nc2ncnc3sccc23)cc1 | 2.82 µM [falling, full curve, poor fit] | – |
| CCSc1nnc(-c2ccc(Cl)cc2Cl)o1 | 10 µM [rising, partial curve] | – |
| C=CCc1cccc(CNc2c(C)n(C)n(-c3ccccc3)c2=O)c1O | 23.1 µM [falling, partial curve, poor fit] | – |
| CCn1c(=O)cc(SCC(=O)N(C)Cc2ccccc2)c2ccccc21 | 6.51 µM [rising, single point] | – |

| Compound | AC50 [1] | AC50 [2] |
| --- | --- | --- |
| Cc1ccc(S(=O)(=O)N(C)c2ccc(OCC(=O)Nc3nc(-c4ccccc4)cs3)cc2)cc1 | 4.61 µM [rising, full curve, poor fit] | – |
| COc1ccc(CCNC(=O)CCc2cn(C)c3ccccc23)c(OC)c1 | 12.6 µM [rising, single point] | – |
| CC(NC(=O)Nc1ccc(Br)cc1)C(C)(C)C (stereo not given) | 17.8 µM [rising, partial curve, poor fit] | – |
| O=S(=O)(Nc1ncccn1)c1ccc(NS(=O)(=O)c2cccc(Cl)c2Cl)cc1 | 1.12 µM [rising, full curve, poor fit] | – |
| Cc1cc(-c2cccc([N+](=O)[O-])c2)nc2ccccc12 | 20.6 µM [rising, partial curve] | 18.4 µM [falling, single point] |
| CCOC(=O)Cc1csc(NC(=O)COc2ccccc2OC)n1 | 8.91 µM [falling, partial curve] | – |
| COC(=O)c1ccc(CNC(=O)c2ccc3c(c2)NC(=O)CS3)cc1 | 6.51 µM [falling, partial curve, poor fit] | – |
| COC(=O)c1ccccc1NC(=O)N1CCN(c2ccccc2)CC1 | 2.82 µM [rising, full curve, poor fit] | – |
| C/C(=N/Nc1nc(C)cc(-c2ccccc2)n1)c1ccco1 | 10.3 µM [falling, single point] | – |
| CCOC(=O)N1CCN(C(=O)c2ccccc2NC(C)=O)CC1 | – | 15.8 µM [falling, single point] |
| COc1ccc(-c2nc3c(c(=O)[nH]c(=O)n3Cc3ccccc3)n2C)cc1 | 0.184 µM [falling, full curve, poor fit] | – |
| CC(NCc1ccco1)C(=O)N1CCc2ccccc2C1 (stereo not given) | 4.61 µM [rising, single point] | 4.61 µM [falling, partial curve, poor fit] |
| O=C(COc1ccccc1[N+](=O)[O-])NCC1(N2CCOCC2)CCCCC1 | 0.731 µM [falling, partial curve, poor fit] | – |
| Cc1[nH]c2ccccc2c1C(=O)COC(=O)c1ccc[n+]([O-])c1 | 35.5 µM [falling, single point] | – |
| CCc1ccc(NC(=O)C(=O)NCC2CCCN2S(=O)(=O)c2cccs2)cc1 (stereo not given) | – | 20.6 µM [falling, partial curve, poor fit] |
| Cc1ccc(Sc2nnc(Cc3ccccc3)c3ccccc23)cc1 | 2.59 µM [falling, partial curve, poor fit] | – |
| Cc1cc(O)c(NC(=O)c2cccc([N+](=O)[O-])c2)cc1C | 3.98 µM [falling, single point] | – |
| CCOC(=O)c1c(-c2ccc(C)cc2C)csc1NC(=O)CSc1nnnn1C | 35.5 µM [falling, single point] | – |
| CCC(=O)Nc1sc2c(c1C#N)CCCCC2 | 13 µM [rising, single point] | – |

No new results follow: entries from further up.

| Compound | AC50 [1] | AC50 [2] |
| --- | --- | --- |
| CCc1ccc(NC(=O)C(=O)NCC2CCCN2S(=O)(=O)c2cccs2)cc1 (stereo not given) | – | 20.6 µM [falling, partial curve, poor fit] |
| Cc1ccc(Sc2nnc(Cc3ccccc3)c3ccccc23)cc1 | 2.59 µM [falling, partial curve, poor fit] | – |
